Assay results taken from PubChem BioAssay AID652054 (National Center for Advancing Translational Sciences (NCATS), 2013).
The campaign covered roughly 360,000 compounds. About 9,100 (2.5%) were called active. The shares of active, inactive and inconclusive entries below differ from those in the screen. Rule as the data show it: active = max response below about -50%; inconclusive = no clear call, values can overlap the other calls; inactive = above that.

Protein sequences, listed by entry. Tags and fused reporters are not part of them.
UniProt P35462, whole entry, looked up: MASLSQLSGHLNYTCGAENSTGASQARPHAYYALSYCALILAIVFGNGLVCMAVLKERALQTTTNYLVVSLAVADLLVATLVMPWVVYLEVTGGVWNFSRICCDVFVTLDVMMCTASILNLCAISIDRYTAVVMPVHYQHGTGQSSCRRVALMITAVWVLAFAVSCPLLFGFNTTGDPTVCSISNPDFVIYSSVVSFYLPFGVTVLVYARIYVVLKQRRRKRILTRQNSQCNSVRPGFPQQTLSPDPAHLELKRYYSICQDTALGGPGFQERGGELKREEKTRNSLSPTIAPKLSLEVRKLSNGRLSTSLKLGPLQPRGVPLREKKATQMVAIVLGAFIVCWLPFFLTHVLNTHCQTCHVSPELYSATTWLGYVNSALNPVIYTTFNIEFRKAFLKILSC

target: D(3) dopamine receptor (Homo sapiens) (UniProt P35462); test: qHTS of D3 Dopamine Receptor Antagonist: qHTS; conditions: D3R cells, DiscoveRx beta-arrestin luminescence, antagonist mode; stronger effect = lower value
Method in brief: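 Cells plated overnight at 1500 cells/well, then exposed to library compounds with dopamine controls for 90 minutes at 37 degrees C. DiscoveRx reagent added for 30–60 minutes at room temperature; luminescence read, quantitative HTS format.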
% is scaled to controls: 0 for no effect and ±100 for the full control effect.

Max response, negative = inhibition, inconclusive:
COc1ccc(C(=O)Nc2nc(-c3ccc(OC)cc3)c(-c3ccc([N+](=O)[O-])cc3)s2)cc1 -38.1%, COc1cc(/C=C2/SC(=S)N(c3c(C)n(C)n(-c4ccccc4)c3=O)C2=O)ccc1O -46.8%, Cc1sc(NC(=S)NC(=O)c2cccs2)nc1-c1ccc(CC(C)C)cc1 -35.2%, CC(=O)c1ccc(NC2=C(N3CCOCC3)C(=O)c3ccccc3C2=O)cc1 -37.3%, C=CCn1c(-c2ccc(N)cc2)nc2ccccc21 -45.3%, OC(COc1ccc2c(c1)OCO2)CN1CCN(c2ccc(F)cc2)CC1 (configuration not stated) -46.5%, CC(=O)N1CCc2c(sc(NC(=O)CCS(=O)(=O)c3ccc(C)cc3)c2C#N)C1 -32.8%, O=C(O)c1cccc(NC(=S)NC(=O)c2ccncc2)c1 -36.1%, Cc1cc(C(=O)NNC(=O)CCN2CCN(c3ccccc3)CC2)c2ccccc2n1 -42.3%, CCCS(=O)(=O)NC(=O)C1(C)CCCN(C(=O)c2c(F)ccc(C)c2F)C1 (configuration not stated) -30.8%, Cc1ccc(NCc2nnc(SCC(=O)Nc3ncc(C)s3)n2Cc2ccco2)c(C)c1 -33.7%, O=C([C@@H]1CC=C[C@@H]2CCN(C3CC3)C(=O)[C@@H]21)N1CCN(c2ccccc2)CC1 -37.4%, N#Cc1c(C(F)(F)F)cc(-c2cccs2)nc1SCc1cccnc1 -32.3%, CCOC(=O)c1c(NCC(C)C)c2ccccc2[nH]c1=O -30.5%, CCCCC1=CC2=CC(=O)C(C)(OC(=O)CC)C(=O)C2=CN1CC(C)C (configuration not stated) -31.7%, OCCC1CN(Cc2cc3ccccc3o2)CCN1Cc1ccc(F)cc1 (configuration not stated) -39.6%, O=C(Nc1ccccc1)Nc1ccccc1 -38.6%, Cc1ccc2nc(Cl)c3cc(C(=O)N(CCN(C)C)Cc4ccco4)sc3c2c1 -33.1%, O=C(c1cc(-c2ccccc2)on1)N1CCN(Cc2ccc3c(c2)OCO3)CC1 -43.8%, COc1ccc(-n2c(O)c(/C=N/Nc3nc(C)cc(C)n3)c3ccccc3c2=O)cc1OC -30.8%, CCn1cc(C(=O)NCCc2ccccc2)c(=O)c2cc(S(=O)(=O)N3CCCC3)ccc21 -34.1%, CN1OC[C@@H]2CN(Cc3ccc4c(c3)OCO4)[C@H](c3ccc(N4CCCCC4)cc3)C[C@@H]21 -40.4%, CC(C)CCn1cnc2c1c(=O)n(C)c(=O)n2C -34.7%, N#Cc1cc(N)c(Nc2ccccc2)cc1C#N -32.5%, COc1ccc(N2CCN(C(=S)NC(=O)c3cccs3)CC2)c([N+](=O)[O-])c1 -30.8%, CCOc1ccc(/C(O)=C2/C(=O)C(=O)N(Cc3cccnc3)C2c2ccc(N(C)C)cc2)c(C)c1 (configuration not stated) -33.7%, CC(=O)Nc1ccc(S(=O)(=O)NCCCN2CCN(Cc3ccccc3)CC2)cc1Cl -43.2%, Nc1nc(N)c(N=Nc2ccc(C(=O)O)cc2)c(N)n1 -30.4%, Cc1ccc2oc(Nc3nc(-c4ccccc4)cc(=O)[nH]3)nc2c1 -38.3%, Cc1cccc(C)c1OCc1n[nH]c(=S)o1 -48.5%, O=C(O)C1CCCN(S(=O)(=O)c2ccc(Cl)s2)C1 (configuration not stated) -32.7%, Cc1ccc([C@H]2C[C@@H](O)[C@H](n3cc(C4CC4)nn3)CN2C(=O)c2cccs2)cc1 -35%, COCCn1c(SCC(=O)Nc2nnc(C)s2)nnc1-c1cc2ccccc2cc1O -47.5%, Cc1noc(C)c1C(=O)NCc1ccccc1 -33.7%, Cc1cc(F)cc(-c2cc(C(=O)NCC3CCCCC3)[nH]n2)c1 -35.4%, CCOc1ccc(-c2nnc(NC(=O)c3ccc(OCC(C)C)c(OC)c3)o2)cc1 -40.5%, COC(=O)[C@]12CCCCC=C1N(Cc1cccc3ccccc13)C(=O)[C@H](CC(=O)NCCCCc1ccccc1)C2 -42.7%, N#Cc1c(NC(=O)CSc2nnc(-c3ccccc3O)n2-c2ccccc2)sc2c1CCCC2 -39.8%, CCN(CC(=O)Nc1ccc(NC(C)=O)cc1)C(=O)c1ccc2ccccc2c1 -45.6%, Cc1ccccc1OCCN1CCCC1 -48.4%, CC1CCCCN1S(=O)(=O)c1ccc(N(C(=O)c2cnccn2)C(C(=O)NC2CCCC2)c2cccs2)cc1 (configuration not stated) -32.1%, CCOC(=O)C1(CCOc2ccccc2)CCN(CCCn2cccn2)CC1 -36.9%, O=C(c1ccc(S(=O)(=O)N2CCCC2)cc1)N1CCN(c2ccccc2F)CC1 -41.3%, Cc1ccc(S(=O)(=O)NC(C)CCc2ccccc2)cc1 (configuration not stated) -35.3%, CC[C@@]1(O)C(=O)OCc2c1cc1n(c2=O)Cc2cc3c(N)cccc3nc2-1 -37.9%, COc1ccc(-c2noc(N3CCC(C(=O)NCCCN4CCCCC4)CC3)n2)cc1 -30.2%, CCOC(=O)[C@H]1[C@H]2COc3ccc(Br)cc3[C@@H]2N2C(=O)c3ccc(F)cc3NC(=O)[C@@]12C -31.7%, COc1ccc(S(=O)(=O)N2CCCC(C(=O)N3CCCC3)C2)cc1OC (configuration not stated) -30.2%, Cn1ccnc1-c1nc2ccccc2[nH]c1=O -33.8%, COc1cc2c(cc1OC)C(=O)CCS2 -38.9%

Max response, negative = inhibition, inactive:
COc1ccccc1NC(=O)N(CCN(C)C)Cc1cc2cc(C)ccc2[nH]c1=O 25.2%, CCCNc1nc(N2CCCC2)nc(N2CCCC2)n1 -5.15%, CC(C(=O)Nc1cccnc1)n1cc([N+](=O)[O-])cn1 (configuration not stated) 4.1%, COC(=O)c1ccccc1NC(=O)c1cc[n+](C)cc1 1.78%, Cc1ccc(N(C)S(=O)(=O)c2ccc(-c3ccc(=O)[nH]n3)s2)cc1C -3.37%, Fc1ccc(N2CCN(c3nc(CN4CCOCC4)nc4scc(-c5ccccc5)c34)CC2)cc1 27.8%, CC(=O)N1CCC2(CC1)CC(=O)c1cc(OCC(=O)N3CCCC3)ccc1O2 -7.85%, Cc1ccc(-c2nc(Nc3ccc(O)cc3)c3ccccc3n2)cc1 -0.209%, CC(=O)N1CCN(C(=O)CNc2cc(C(F)(F)F)ccc2OCC(F)(F)F)CC1 -1.49%, Cc1onc(-c2ccccc2Cl)c1C(=O)N(C)C1CCCCC1 3.4%, COc1ccc(OC)c(N(CC(=O)NC2CCCCCC2)S(=O)(=O)c2ccc(C)cc2)c1 -5.1%, CN(Cc1ccccc1)C(=O)COC(=O)CCN1C(=O)C2CC=CCC2C1=O (configuration not stated) 9.46%, N#C/C(=N\Nc1ccccc1)C(=N)N1CCCCCC1 -16.4%, Nc1cccc2[nH]c(=O)c3ccccc3c12 23.2%, CN(C)C(=S)N=c1ssc(=S)n1Cc1cccnc1 29.7%, Cc1ccccc1NC(=O)C1Cc2ccccc2CN1C(=O)OCc1ccccc1 (configuration not stated) -11.7%, COc1cc(OC)c2c(-c3cccc(-c4ccc(CO)cc4)c3)cc(=O)oc2c1 -9.44%, Cc1ccc(S(=O)(=O)N2[C@H](CC(=O)c3cccc4ccccc34)OC[C@@H]2C(C)C)cc1 0.431%, CC1(C(=O)NS(=O)(=O)c2ccc3c(c2)CCO3)CCN1C(=O)COc1ccc(Cl)cc1 (configuration not stated) 18.2%, c1cc2c(cc1-c1[nH]ncc1CN1CC3C[C@@H]4CC1C[C@H](C3)C4)OCO2 0.646%, Cc1cc(C[n+]2cc(Br)ccc2N)c2ncccc2c1 -10.3%, COc1ccccc1C(=O)COC(=O)C1CCN(S(=O)(=O)c2ccc(C)c(C)c2)CC1 6.36%

Max response, negative = inhibition, active:
CCc1cccc(OCCOCCN2CCCC2)c1 -71.1%, COc1ccccc1N1CCN(CCCCN2C(=O)C3CCCN3C2=O)CC1 (configuration not stated) -86.7%, C/C=C/c1ccc(OCCCNC2CCCC2)c(OC)c1 -60.7%, O=C(O)CCCN1C(=O)/C(=C/c2ccc(-c3nc4ccccc4s3)o2)SC1=S -81.8%, O=S(=O)(Nc1ccccc1)c1ccc(Oc2ncc(C(F)(F)F)cc2Cl)cc1 -62.5%, O=C1C2CCCCN2C(=O)N1CCCCN1CCN(c2cccc(C(F)(F)F)c2)CC1 (configuration not stated) -140%, O=C(Nc1ccc(OCc2ccccc2)cc1)Nc1nnc([C@H]2C[C@H](O)[C@@H](CO)O2)s1 -52.8%, CC(CCc1ccccc1)NCC(O)COc1ccccc1 (configuration not stated) -64.5%, Cc1ccc(NC(=S)NNc2ncc(C(F)(F)F)cc2Cl)cc1 -68.4%, Cc1cc(Cl)n2c(nc3ccccc32)c1C#N -72.9%, O=[N+]([O-])c1ccccc1/C=C/CN1CCCCC1 -70.5%, COc1cccc(OC)c1OCCCNC1CCCC1 -54.9%, Cc1ccc(S(=O)(=O)N/N=C2/CC(c3ccccc3)Oc3ccccc32)cc1[N+](=O)[O-] (configuration not stated) -82.7%, c1ccc(COCCN2CCN(CCOCc3ccccc3)CC2)cc1 -69%, CCNC(=O)c1cc2c(c(-c3cccc(-c4cncnc4)c3)n1)[C@H](CCO)N(C(C)=O)C2 -53.7%
